Paper PMC6735397
These are yes or no findings as the source states them, for the method shown. In cells and extracts the contact can be indirect. Some binding calls cover weakened binding; strength is not graded here.

Sequences of proteins named here, by UniProt entry; tags and fusion partners are left off.
UniProt Q13887: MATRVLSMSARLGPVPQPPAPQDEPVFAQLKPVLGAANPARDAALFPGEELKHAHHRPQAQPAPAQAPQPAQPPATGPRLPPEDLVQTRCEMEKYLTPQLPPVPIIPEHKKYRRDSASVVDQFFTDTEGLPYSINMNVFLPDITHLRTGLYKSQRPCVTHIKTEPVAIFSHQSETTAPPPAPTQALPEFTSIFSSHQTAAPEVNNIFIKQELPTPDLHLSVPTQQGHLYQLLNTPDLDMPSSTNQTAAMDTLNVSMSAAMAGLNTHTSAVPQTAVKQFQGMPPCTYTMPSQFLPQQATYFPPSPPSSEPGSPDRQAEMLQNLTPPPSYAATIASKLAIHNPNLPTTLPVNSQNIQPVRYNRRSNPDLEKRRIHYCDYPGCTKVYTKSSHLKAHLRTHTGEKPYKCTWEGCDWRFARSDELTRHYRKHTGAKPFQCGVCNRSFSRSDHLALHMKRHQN
UniProt O15379: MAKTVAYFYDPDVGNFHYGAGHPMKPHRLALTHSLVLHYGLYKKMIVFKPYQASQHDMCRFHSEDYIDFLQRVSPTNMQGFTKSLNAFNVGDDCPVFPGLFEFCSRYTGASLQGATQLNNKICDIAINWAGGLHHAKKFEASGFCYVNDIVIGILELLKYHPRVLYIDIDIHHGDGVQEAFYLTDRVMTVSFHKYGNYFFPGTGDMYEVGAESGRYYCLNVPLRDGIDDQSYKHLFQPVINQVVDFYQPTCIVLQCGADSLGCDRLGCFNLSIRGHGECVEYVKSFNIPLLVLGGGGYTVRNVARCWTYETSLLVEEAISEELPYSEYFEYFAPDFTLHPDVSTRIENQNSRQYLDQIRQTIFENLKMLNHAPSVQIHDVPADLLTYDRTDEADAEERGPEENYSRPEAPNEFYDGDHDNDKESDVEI

Assays:
[1] = target: endogenous KLF5 (human (endogenous in C4-2 and CW22RV1)) (UniProt Q13887); test: co-IP; endogenous proteins in C4-2 and CW22RV1 cells; lysis buffer 50 mM Tris-HCl pH 7.5, 150 mM NaCl, 1% Nonidet P-40, 0.5% sodium deoxycholate; indicated antibodies and Protein G Plus beads, 4°C overnight; Western blot
[2] = target: Flag-linked KLF5 (exogenous KLF5) (UniProt Q13887); test: co-IP; exogenous Flag-linked KLF5 and pcDNA3-linked HDAC3 in HEK293 cells; lysis buffer 50 mM Tris-HCl pH 7.5, 150 mM NaCl, 1% Nonidet P-40, 0.5% sodium deoxycholate; indicated antibodies and Protein G Plus beads, 4°C overnight; Western blot

Row | binding [1] | binding [2] | Substance
1 | binds | – | endogenous HDAC3 (from UniProt O15379 1-428)
2 | – | binds | pcDNA3-linked HDAC3 (from UniProt O15379 1-428)
